The record followed here is the supplement of paper PMC12542422.

Counter-ions that a name gives are not always drawn. ± gives the standard deviation of the averaged measurements. Some of the results follow. Values are raw readings; no control value is given beside them.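 Across three biological replicates, HeLa cells were imaged for ribosome assembly using ENP1 staining (export block present or absent) or inducible tagged ribosomal protein reporters. Machine learning classified each cell's signal localization relative to DMSO controls. Hits exceeded the DMSO false-positive mean by five standard deviations and were then visually confirmed.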

The subject of this assay is HeLa K (ENP1 immunofluorescence, +LMB). The assay is described as follows: fraction of cells with nucleolar or nucleolar/nucleoplasmic ENP1 signal (MainHitrate); higher = more cells with nucleolar/nuclear readout signal (for ENP1 -LMB: less RNAPI inhibition; for +LMB ENP1 and RP reporters: stronger nuclear/nucleolar retention, i.e. ribosome biogenesis defect). The conditions noted are these: concentration: 1 µM; treatment time: 6 h; ENP1 +LMB; leptomycin B: 20 nM, last 1.5 h.
For `COc1ccc2[nH]c([S@@+]([O-])Cc3ncc(C)c(OC)c3C)nc2c1` [Esomeprazole magnesium (Nexium)], the fraction turned out to be 0.104 ± 0.091.

In turn, `CCC(NC(C)C)C(O)c1ccc(O)c(O)c1` (stereo not drawn) [Isoetharine Mesylate] gave a fraction of 0.137 ± 0.17.

Take `O=C1CC[C@@H](C(=O)N2CSC[C@H]2C(=O)O)N1` [Pidotimod]: the fraction turned out to be 0.122 ± 0.16.

As for `O=C(NCCN1CCOCC1)c1ccc(Cl)cc1` [Moclobemide], the fraction is 0.104 ± 0.16.

`C[C@H]1C[C@@H]2[C@H]([C@@H](O)C[C@@]3(C)[C@H]2CC[C@]3(O)C(=O)CO)[C@@]2(C)C=CC(=O)C=C12` [Methylprednisolone]: the fraction is 0.0815 ± 0.078.

`CCc1ccc(CCOc2ccc(CC3SC(=O)NC3=O)cc2)nc1` (stereo not drawn) [Pioglitazone (Actos)] returned a fraction of 0.0797 ± 0.099.

Turning to `NS(=O)(=O)c1cc(Cl)c(Cl)c(S(N)(=O)=O)c1` [Dichlorphenamide (Diclofenamide)], the fraction came out at 0.0886 ± 0.12.

Consider `O=P(O)(O)C(O)(Cc1cccnc1)P(=O)(O)O` [Risedronic acid (Actonel)], for which the fraction is 0.119 ± 0.16.

For `CC(C)(S)[C@@H](N)C(=O)O` [Penicillamine (Cuprimine)], the fraction worked out at 0.142 ± 0.19.

In the case of `CCCCN1CCCCC1C(=O)Nc1c(C)cccc1C` (stereo not drawn) [Bupivacaine hydrochloride (Marcain)], the fraction was 0.223 ± 0.35.

`CC(C)OC(=O)OCOP(=O)(CO[C@H](C)Cn1cnc2c(N)ncnc21)OCOC(=O)OC(C)C` [Tenofovir Disoproxil Fumarate] gave a fraction of 0.108 ± 0.14.

For `CC(=O)Oc1ccccc1C(=O)O` [Aspirin (Acetylsalicylic acid)], the fraction was found to be 0.11 ± 0.17.

Regarding `O=C1O[C@H]([C@@H](O)CO)C([O-])=C1O.[Na+]` [Sodium ascorbate], the fraction stood at 0.0466 ± 0.056.
